The values that follow come from patent publication US11680082B2 (ENLITISA (SHANGHAI) PHARMACEUTICAL CO., LTD, priority 2018, dated 2023).

The nature of this data set: general procedure: Fmoc solid-phase peptide synthesis; Fmoc-Lys(Boc)-Wang resin; Fmoc-Lys(Dde)-OH on a Wang resin (GL Biochem); TBTU, DIPEA.

Strings that start with PEPTIDE1 are HELM notation: dots part the residues, brackets hold end groups and non-standard residues. Non-standard residues stand in square brackets, D forms with d. No end group written: not given here. Hyp = O=C(O)[C@@H]1C[C@@H](O)CN1; pS = N[C@@H](COP(=O)(O)O)C(=O)O

As to “PEPTIDE1{A.K.P.S.Y.[Hyp].[Hyp].T.Y.K}|CHEM1{[MonSty]}|CHEM2{[MonSty]}$PEPTIDE1,CHEM1,2:R3-1:R2|PEPTIDE1,CHEM2,10:R3-1:R2$$$V2.0”, the “final purity (method not given)” value (whole synthesis, LCMS, analysis column GS-120-5-C18-BIO 4.6*250 mm, UV at 220 nm, scale of the general procedure 9.15 g resin, 3 g resin) is 90% to 95%.
As for AKP[pS]Y[Hyp][Hyp]TYK, the step yield result (purification step, from the crude product) is “approximately 7%”. Further, under “whole synthesis”, the crude mass was 1.4 g and the isolated mass is listed as 98 mg.
